The test addresses PSKH2 with the C-terminal tail deleted, C-terminal MYC epitope (human). The experiment in a line: co-IP; C-terminal MYC-tagged PSKH2 or variants precipitated from HEK-293T lysate with anti-c-Myc agarose (lysis buffer with 1% DDM), immunoblot of endogenous partners. A general note: A western blot detects proteins with antibodies after separation by electrophoresis.

No constants are given. Whether binding was seen depends on the method and setting. In cells and extracts the contact can be indirect.

B1: Cdc37 (protein, UniProt Q16543 1-378)
chain: MVDYSVWDHIEVSDDEDETHPNIDTASLFRWRHQARVERMEQFQKEKEELDRGCRECKRKVAECQRKLKELEVAEGGKAELERLQAEAQQLRKEERSWEQKLEEMRKKEKSMPWNVDTLSKDGFSKSMVNTKPEKTEEDSEEVREQKHKTFVEKYEKQIKHFGMLRRWDDSQKYLSDNVHLVCEETANYLVIWCIDLEVEEKCALMEQVAHQTIVMQFILELAKSLKVDPRACFRQFFTKIKTADRQYMEGFNDELEAFKERVRGRAKLRIEKAMKEYEEEERKKRLGPGGLDPVEVYESLPEELQKCFDVKDVQMLQDAISKMDPTDAKYHMQRCIDSGLWVPNSKASEAKEGEEAGPGDPLLEAVPKTGDEKDVSV
As for B1, the binding entry was “no binding”.

B2: FKBP5 (protein, UniProt Q13451 1-457)
chain: MTTDEGAKNNEESPTATVAEQGEDITSKKDRGVLKIVKRVGNGEETPMIGDKVYVHYKGKLSNGKKFDSSHDRNEPFVFSLGKGQVIKAWDIGVATMKKGEICHLLCKPEYAYGSAGSLPKIPSNATLFFEIELLDFKGEDLFEDGGIIRRTKRKGEGYSNPNEGATVEIHLEGRCGGRMFDCRDVAFTVGEGEDHDIPIGIDKALEKMQREEQCILYLGPRYGFGEAGKPKFGIEPNAELIYEVTLKSFEKAKESWEMDTKEKLEQAAIVKEKGTVYFKGGKYMQAVIQYGKIVSWLEMEYGLSEKESKASESFLLAAFLNLAMCYLKLREYTKAVECCDKALGLDSANEKGLYRRGEAQLLMNEFESAKGDFEKVLEVNPQNKAARLQISMCQKKAKEHNERDRRIYANMFKKFAEQDAKEEANKAMGKKTSEGVTNEKGTDSQAMEEEKPEGHV
Turning to B2, the binding result was “no binding”.
